Article PMC11234269
These are yes or no findings as the source states them, for the method shown. In cells and extracts the contact can be indirect. Some entries that bind do so weakly or less than the wild type. For some of these results: Tags and fused reporters may be left off the sequences shown.

By UniProt entry, the sequences of proteins in these tests, tags left out.
UniProt Q60980: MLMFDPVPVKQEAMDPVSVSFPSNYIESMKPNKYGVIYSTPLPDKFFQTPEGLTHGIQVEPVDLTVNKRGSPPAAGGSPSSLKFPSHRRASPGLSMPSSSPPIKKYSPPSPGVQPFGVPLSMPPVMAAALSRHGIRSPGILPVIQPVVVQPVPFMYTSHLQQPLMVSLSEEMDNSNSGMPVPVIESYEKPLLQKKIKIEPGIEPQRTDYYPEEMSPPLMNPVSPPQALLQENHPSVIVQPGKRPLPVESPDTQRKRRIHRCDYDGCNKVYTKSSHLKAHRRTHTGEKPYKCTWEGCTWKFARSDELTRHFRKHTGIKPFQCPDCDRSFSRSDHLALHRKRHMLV
UniProt O89090: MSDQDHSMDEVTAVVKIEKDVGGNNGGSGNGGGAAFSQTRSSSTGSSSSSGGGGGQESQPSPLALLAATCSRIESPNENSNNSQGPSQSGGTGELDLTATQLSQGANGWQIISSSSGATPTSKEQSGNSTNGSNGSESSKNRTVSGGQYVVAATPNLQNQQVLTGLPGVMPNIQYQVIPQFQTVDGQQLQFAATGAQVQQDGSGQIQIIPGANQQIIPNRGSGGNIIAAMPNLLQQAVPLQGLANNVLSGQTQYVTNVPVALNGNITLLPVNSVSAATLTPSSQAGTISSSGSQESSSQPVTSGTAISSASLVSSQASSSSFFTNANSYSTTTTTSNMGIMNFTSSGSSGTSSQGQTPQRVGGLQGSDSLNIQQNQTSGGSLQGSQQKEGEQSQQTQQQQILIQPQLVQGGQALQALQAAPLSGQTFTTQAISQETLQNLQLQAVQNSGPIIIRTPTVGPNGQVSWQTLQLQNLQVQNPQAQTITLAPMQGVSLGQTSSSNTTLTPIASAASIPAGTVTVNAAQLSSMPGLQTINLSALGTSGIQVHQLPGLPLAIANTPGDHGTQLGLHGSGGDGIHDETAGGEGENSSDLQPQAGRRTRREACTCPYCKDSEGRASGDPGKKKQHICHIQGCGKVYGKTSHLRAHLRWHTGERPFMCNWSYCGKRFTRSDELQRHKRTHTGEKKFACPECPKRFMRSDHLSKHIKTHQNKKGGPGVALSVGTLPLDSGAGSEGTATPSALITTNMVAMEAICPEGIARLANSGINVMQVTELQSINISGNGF

Tests used:
[1] = target: Klf3-venus-173 (Krüppel-like factor 3 fused to a Venus fragment) (UniProt Q60980); experiment: split reporter; bimolecular fluorescence complementation: venus-173 and venus-174 fusions cotransfected into 3T3 cells, read with an upright fluorescence microscope
[2] = target: Sp1-venus-173 (trans-acting transcription factor 1 fused to a Venus fragment) (UniProt O89090); experiment: as above
[3] = target: KLF3 expressed from pCMV-Klf3 (UniProt Q60980); experiment: co-IP; 3T3 cells transfected with vectors; IP lysis buffer; immunoprecipitation with an anti-SP1 or anti-KLF3 antibody overnight, Protein A/G beads for 4 hours, 3 PBS washes; immunoblot for CBX4, SP1 and KLF3
[4] = target: SP1 expressed from pCMV-Sp1 (UniProt O89090); experiment: as above

Binder	binding [1]	binding [2]	binding [3]	binding [4]
Cbx4-venus-174 (chromobox protein 4 fused to a Venus fragment) (protein, UniProt O55187 1-551) MELPAVGEHVFAVESIEKKRIRKGRVEYLVKWRGWSPKYNTWEPEENILDPRLLIAFQNRERQEQLMGYRKRGPKPKPLVVQVPTFARRSNVLTGLQDSSADNRAKLELGTQGKGQGHQYELNSKKHHQYQPHSKERSGKPPPPGKSGKYYYQLNSKKHHPYQPDPKMYDLQYQGGHKEAPSPTCPDLGTKSHPPDKWAHGAAAKGYLGAVKPLGGGAGAPGKGSEKGPPNGMTPAPKEAVTGNGIGGKMKIVKNKNKNGRIVIVMSKYMENGMQAVKIKSGEAAEGEARSPSHKKRAAEERHPQGDRTFKKAAGASEEKKAEVPCKRREEEALVSGDAQPQDLGSRKLSPTKEAFGEQPLQLTTKPDLLAWDPARSSHPPAHHHHHHHHHHHHHTVGLNLSHARKRCLSETHGEREPCKKRLTARSISTPTCLGGSPVSEHPANVSPTAASLPQPEVILLDSDLDEPIDLRCVKMRSDAGEPPSTLQVKPEAPAVAAVVAPAPASEKPPAEAQEEPVEPLSEFKPFFGNIIITDVTANCLTVTFKEYVTV	binds	binds	–	–
CBX4 expressed from Pcaggs-Cbx4 (protein, UniProt O55187 1-551) MELPAVGEHVFAVESIEKKRIRKGRVEYLVKWRGWSPKYNTWEPEENILDPRLLIAFQNRERQEQLMGYRKRGPKPKPLVVQVPTFARRSNVLTGLQDSSADNRAKLELGTQGKGQGHQYELNSKKHHQYQPHSKERSGKPPPPGKSGKYYYQLNSKKHHPYQPDPKMYDLQYQGGHKEAPSPTCPDLGTKSHPPDKWAHGAAAKGYLGAVKPLGGGAGAPGKGSEKGPPNGMTPAPKEAVTGNGIGGKMKIVKNKNKNGRIVIVMSKYMENGMQAVKIKSGEAAEGEARSPSHKKRAAEERHPQGDRTFKKAAGASEEKKAEVPCKRREEEALVSGDAQPQDLGSRKLSPTKEAFGEQPLQLTTKPDLLAWDPARSSHPPAHHHHHHHHHHHHHTVGLNLSHARKRCLSETHGEREPCKKRLTARSISTPTCLGGSPVSEHPANVSPTAASLPQPEVILLDSDLDEPIDLRCVKMRSDAGEPPSTLQVKPEAPAVAAVVAPAPASEKPPAEAQEEPVEPLSEFKPFFGNIIITDVTANCLTVTFKEYVTV	–	–	binds	binds
